Results are given in words; binding and its absence hold for the method and conditions named. Binding can be weak; no strength is given. One block for each binder: values may come before it.
Biological target: KIF21B stalk-domain (aa 401-1100), bait construct (mouse)
Assay: two-hybrid; DupLEX-A yeast two-hybrid system; KIF21B baits in pGilda, TRIM3 preys in pJG4-5; lacZ reporter, beta-galactosidase activity as average signal intensity of colonies (arbitrary units)

- binding: binds
B1: full-length TRIM3 (aa 1-744), prey construct (protein, UniProt Q9R1R2 1-744)
chain: MAKREDSPGPEVQPMDKQFLVCSICLDRYRCPKVLPCLHTFCERCLQNYIPPQSLTLSCPVCRQTSILPEQGVSALQNNFFISSLMEAMQQAPEGAHDPEDPHPLSAVAGRPLSCPNHEGKTMEFYCEACETAMCGECRAGEHREHGTVLLRDVVEQHKAALQRQLEAVRGRLPQLSAAIALVGGISQQLQERKAEALAQISAAFEDLEQALQQRKQALVSDLESICGAKQKVLQTQLDTLRQGQEHIGSSCSFAEQALRLGSAPEVLLVRKHMRERLAALAAQAFPERPHENAQLELVLEVDGLRRSVLNLGALLTTSATAHETVATGEGLRQALVGQPASLTVTTKDKDGRLVRTGSAELCAEITGPDGVRLAVPVVDHKNGTYELVYTARTEGDLLLSVLLYGQPVRGSPFRVRALRPGDLPPSPDDVKRRVKSPGGPGSHVRQKAVRRPSSMYSTGGKRKDNPIEDELVFRVGSRGREKGEFTNLQGVSAASSGRIVVADSNNQCIQVFSNEGQFKFRFGVRGRSPGQLQRPTGVAVDTNGDIIVADYDNRWVSIFSPEGKFKTKIGAGRLMGPKGVAVDRNGHIIVVDNKSCCVFTFQPNGKLVGRFGGRGATDRHFAGPHFVAVNNKNEIVVTDFHNHSVKVYSADGEFLFKFGSHGEGNGQFNAPTGVAVDSNGNIIVADWGNSRIQVFDSSGSFLSYINTSAEPLYGPQGLALTSDGHVVVADAGNHCFKAYRYLQ

- binding: binds
B2: TRIM3-RBCC (aa 1-290), prey construct (domain or fragment, UniProt Q9R1R2 1-290)
chain: MAKREDSPGPEVQPMDKQFLVCSICLDRYRCPKVLPCLHTFCERCLQNYIPPQSLTLSCPVCRQTSILPEQGVSALQNNFFISSLMEAMQQAPEGAHDPEDPHPLSAVAGRPLSCPNHEGKTMEFYCEACETAMCGECRAGEHREHGTVLLRDVVEQHKAALQRQLEAVRGRLPQLSAAIALVGGISQQLQERKAEALAQISAAFEDLEQALQQRKQALVSDLESICGAKQKVLQTQLDTLRQGQEHIGSSCSFAEQALRLGSAPEVLLVRKHMRERLAALAAQAFPERP
